Measured values: the supplement of paper PMC10849652
This is one part of the list.

Protein sequences, listed by entry. Tags and fused reporters are not part of them. Lines headed by an entry give the natural chain unless they say otherwise; changes in a name come on top.
UniProt Q6YHU6: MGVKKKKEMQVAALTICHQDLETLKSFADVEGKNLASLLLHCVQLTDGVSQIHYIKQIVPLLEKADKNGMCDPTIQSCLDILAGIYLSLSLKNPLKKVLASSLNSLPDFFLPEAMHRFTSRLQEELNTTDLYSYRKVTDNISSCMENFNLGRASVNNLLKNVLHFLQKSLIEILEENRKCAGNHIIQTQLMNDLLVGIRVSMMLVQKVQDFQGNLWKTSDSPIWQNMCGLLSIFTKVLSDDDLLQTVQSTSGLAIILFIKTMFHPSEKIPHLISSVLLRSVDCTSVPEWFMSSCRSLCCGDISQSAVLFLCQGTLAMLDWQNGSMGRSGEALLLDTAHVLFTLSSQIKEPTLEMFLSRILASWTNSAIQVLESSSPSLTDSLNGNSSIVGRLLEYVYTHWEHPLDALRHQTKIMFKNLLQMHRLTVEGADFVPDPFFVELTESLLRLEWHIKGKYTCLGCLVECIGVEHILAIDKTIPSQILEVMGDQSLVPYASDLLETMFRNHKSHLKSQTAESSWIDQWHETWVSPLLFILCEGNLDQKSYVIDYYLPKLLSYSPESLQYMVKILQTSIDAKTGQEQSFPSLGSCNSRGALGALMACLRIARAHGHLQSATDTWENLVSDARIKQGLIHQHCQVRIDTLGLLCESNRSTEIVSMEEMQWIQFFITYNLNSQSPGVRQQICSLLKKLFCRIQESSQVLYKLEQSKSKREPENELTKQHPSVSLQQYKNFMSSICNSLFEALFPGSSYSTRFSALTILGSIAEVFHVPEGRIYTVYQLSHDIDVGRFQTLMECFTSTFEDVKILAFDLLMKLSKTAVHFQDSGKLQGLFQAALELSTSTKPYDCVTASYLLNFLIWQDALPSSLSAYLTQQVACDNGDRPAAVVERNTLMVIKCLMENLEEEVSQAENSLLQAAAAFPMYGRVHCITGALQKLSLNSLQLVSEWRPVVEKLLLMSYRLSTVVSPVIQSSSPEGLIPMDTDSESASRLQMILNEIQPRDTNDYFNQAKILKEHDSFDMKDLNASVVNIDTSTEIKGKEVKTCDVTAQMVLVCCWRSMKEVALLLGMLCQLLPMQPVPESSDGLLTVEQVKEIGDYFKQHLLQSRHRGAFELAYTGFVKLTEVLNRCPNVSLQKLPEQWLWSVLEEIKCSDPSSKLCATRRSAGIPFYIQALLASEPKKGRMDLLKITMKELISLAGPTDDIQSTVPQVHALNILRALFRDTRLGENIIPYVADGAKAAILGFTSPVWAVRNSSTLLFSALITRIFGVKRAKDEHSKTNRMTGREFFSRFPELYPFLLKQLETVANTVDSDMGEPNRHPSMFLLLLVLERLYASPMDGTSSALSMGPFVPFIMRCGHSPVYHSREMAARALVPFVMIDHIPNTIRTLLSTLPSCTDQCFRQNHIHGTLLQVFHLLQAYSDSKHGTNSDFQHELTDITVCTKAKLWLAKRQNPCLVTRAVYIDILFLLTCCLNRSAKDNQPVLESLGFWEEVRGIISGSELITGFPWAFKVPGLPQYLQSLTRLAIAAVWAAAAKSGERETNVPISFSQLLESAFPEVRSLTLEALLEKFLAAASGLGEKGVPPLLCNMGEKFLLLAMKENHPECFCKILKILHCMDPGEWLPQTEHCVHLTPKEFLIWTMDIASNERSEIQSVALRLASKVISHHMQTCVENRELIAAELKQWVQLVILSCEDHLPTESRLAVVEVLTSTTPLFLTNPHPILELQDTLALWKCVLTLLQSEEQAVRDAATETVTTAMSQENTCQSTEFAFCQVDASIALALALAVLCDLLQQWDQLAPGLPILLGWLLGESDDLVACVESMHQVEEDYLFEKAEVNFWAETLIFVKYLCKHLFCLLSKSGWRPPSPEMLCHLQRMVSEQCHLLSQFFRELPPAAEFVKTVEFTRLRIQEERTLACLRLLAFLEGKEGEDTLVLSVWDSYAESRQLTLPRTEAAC
UniProt P31483: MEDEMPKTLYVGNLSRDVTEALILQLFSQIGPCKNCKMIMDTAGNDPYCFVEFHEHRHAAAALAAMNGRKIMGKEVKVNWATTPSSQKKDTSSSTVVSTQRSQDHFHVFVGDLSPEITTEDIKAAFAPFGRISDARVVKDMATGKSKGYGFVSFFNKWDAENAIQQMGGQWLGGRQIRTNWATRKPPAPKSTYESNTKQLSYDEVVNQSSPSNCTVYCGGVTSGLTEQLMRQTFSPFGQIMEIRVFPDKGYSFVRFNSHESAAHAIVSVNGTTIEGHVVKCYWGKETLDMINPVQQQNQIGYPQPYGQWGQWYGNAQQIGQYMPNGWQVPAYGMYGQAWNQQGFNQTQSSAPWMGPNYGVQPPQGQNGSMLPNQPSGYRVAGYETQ
UniProt Q5T1C6: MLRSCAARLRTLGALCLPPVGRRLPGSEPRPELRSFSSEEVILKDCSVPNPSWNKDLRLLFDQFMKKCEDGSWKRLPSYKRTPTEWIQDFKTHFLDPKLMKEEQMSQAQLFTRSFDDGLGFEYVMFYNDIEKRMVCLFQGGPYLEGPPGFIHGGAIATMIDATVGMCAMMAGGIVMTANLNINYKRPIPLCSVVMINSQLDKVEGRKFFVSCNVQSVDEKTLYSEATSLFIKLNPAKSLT
UniProt Q9HD45: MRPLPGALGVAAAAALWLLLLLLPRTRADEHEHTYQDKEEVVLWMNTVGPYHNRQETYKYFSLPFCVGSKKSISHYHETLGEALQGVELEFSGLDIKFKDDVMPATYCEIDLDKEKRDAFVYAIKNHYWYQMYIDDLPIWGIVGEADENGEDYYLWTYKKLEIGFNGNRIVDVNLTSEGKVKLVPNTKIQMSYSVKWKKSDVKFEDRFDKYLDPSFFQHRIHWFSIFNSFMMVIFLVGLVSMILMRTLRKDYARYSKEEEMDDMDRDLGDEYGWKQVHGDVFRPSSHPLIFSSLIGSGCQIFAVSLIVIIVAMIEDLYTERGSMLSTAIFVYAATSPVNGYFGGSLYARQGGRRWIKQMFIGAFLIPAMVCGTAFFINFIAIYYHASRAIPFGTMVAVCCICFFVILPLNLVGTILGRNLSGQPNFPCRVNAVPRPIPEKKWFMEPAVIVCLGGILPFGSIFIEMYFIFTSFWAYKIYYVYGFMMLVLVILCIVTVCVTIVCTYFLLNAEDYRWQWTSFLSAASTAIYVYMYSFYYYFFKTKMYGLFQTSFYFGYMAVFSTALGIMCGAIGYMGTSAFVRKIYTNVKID
UniProt Q9BU02: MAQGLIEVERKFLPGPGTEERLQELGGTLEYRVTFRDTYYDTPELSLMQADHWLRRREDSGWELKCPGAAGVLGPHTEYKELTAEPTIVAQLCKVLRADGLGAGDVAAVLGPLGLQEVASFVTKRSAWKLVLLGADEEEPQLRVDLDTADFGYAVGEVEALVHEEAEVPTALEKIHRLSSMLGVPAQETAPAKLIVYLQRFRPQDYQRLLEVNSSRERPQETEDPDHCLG
UniProt Q96MV1: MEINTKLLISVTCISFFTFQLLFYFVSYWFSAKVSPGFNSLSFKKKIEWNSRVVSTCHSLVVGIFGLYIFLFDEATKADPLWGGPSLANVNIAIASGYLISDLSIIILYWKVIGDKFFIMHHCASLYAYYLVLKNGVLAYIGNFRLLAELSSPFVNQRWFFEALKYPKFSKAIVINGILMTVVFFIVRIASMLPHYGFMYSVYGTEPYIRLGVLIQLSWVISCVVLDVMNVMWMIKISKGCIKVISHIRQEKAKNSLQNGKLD
UniProt Q9P016: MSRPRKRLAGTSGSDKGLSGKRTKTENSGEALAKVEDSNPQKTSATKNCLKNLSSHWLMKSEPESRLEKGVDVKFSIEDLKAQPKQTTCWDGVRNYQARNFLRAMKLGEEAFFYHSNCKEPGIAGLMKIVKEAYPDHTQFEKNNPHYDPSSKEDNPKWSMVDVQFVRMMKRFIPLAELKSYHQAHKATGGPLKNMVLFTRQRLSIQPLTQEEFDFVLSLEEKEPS
UniProt Q9H061: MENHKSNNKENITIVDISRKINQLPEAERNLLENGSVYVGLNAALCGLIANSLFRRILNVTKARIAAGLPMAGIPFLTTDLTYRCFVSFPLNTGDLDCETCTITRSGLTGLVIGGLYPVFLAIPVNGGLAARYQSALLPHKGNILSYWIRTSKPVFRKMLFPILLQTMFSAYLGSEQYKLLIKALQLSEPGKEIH
UniProt Q7Z7N9: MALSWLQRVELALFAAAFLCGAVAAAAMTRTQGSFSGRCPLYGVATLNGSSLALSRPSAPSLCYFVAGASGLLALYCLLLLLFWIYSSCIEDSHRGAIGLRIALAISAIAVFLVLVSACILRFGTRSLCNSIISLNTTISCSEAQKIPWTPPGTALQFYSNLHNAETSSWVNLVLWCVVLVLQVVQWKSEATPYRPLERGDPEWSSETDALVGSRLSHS
UniProt Q9Y5J9: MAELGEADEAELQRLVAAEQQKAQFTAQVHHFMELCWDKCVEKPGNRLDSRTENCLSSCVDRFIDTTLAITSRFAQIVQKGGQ
UniProt Q96FV9: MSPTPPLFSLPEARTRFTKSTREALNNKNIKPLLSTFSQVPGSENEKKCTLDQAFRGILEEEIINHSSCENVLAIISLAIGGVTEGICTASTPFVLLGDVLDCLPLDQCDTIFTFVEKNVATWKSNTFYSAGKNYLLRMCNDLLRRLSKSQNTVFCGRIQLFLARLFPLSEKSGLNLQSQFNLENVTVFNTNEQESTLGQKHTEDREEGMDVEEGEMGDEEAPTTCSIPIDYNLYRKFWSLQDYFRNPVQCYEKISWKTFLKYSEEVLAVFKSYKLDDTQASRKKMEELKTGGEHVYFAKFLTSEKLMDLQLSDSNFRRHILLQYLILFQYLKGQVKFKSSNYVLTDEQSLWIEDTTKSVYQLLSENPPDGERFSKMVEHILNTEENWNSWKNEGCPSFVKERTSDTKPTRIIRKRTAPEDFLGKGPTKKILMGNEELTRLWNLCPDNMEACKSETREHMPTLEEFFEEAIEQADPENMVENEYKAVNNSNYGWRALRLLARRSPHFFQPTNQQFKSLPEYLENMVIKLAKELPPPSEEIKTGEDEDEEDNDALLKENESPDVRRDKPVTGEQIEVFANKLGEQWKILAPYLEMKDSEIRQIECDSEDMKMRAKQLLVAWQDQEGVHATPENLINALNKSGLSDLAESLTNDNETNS
UniProt Q9Y3A6: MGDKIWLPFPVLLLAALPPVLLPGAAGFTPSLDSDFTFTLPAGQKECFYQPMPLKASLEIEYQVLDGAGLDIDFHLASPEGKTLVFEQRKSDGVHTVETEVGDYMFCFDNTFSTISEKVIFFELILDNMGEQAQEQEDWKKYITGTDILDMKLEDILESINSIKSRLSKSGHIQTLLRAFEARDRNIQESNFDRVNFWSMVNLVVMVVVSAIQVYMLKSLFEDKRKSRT
UniProt Q8WUH2: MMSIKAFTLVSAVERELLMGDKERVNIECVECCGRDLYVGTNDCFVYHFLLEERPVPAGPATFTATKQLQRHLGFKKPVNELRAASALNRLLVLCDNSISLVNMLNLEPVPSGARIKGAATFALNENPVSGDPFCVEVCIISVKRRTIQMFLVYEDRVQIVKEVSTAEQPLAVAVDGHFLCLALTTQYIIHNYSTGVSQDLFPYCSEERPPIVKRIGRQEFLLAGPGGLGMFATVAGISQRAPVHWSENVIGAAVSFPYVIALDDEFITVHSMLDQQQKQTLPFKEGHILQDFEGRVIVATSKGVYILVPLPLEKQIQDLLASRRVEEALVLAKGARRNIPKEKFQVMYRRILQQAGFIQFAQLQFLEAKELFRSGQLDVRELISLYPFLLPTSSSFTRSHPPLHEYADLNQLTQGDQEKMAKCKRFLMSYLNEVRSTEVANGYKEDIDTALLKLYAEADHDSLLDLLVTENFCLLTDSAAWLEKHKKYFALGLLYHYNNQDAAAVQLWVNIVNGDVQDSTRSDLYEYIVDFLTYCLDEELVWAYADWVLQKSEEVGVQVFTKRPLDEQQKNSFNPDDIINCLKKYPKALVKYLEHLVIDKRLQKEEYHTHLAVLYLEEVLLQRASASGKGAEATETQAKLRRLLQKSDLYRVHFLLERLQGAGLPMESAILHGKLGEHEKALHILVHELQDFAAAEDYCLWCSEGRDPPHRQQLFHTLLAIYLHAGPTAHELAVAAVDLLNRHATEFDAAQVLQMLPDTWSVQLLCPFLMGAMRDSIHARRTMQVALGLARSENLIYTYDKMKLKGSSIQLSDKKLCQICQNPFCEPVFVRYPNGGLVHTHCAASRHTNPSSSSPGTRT
UniProt Q86UB9: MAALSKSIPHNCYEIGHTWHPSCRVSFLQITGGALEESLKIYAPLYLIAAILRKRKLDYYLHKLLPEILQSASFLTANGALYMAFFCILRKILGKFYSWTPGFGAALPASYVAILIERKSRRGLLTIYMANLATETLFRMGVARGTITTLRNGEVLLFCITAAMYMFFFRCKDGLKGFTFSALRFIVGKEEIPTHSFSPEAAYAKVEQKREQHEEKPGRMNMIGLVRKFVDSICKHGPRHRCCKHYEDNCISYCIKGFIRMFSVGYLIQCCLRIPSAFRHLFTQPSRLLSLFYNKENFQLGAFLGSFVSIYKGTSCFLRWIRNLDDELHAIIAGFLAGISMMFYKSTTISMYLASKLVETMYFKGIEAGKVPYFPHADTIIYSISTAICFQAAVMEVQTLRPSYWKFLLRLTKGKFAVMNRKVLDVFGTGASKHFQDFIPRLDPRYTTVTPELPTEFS

Key:
Assay in all cases: log2 fold change, soluble protein after heating vs DMSO (PISA); higher = thermal stabilisation; K562 lysate, 10 uM; active = over 0.2 and 3.5 SD of the protein, either way, in both replicates (recomputed)
erlotinib = compound: C#Cc1cccc(Nc2ncnc3cc(OCCOC)c(OCCOC)cc23)c1 [erlotinib]
How it was run: (§1)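 Soluble protein was defined as the supernatant remaining after 21,000xg for 90 min, following pooling of heated aliquots and adjustment to 0.5% NP-40 at 4°C. Before that, crude K562 extract at 1 mg/mL protein in PBS pH 7.4 with 1 mM MgCl2 was treated with 10 μM compound for 30 min and heated for 3 min across 48°C-58°C. Quantification used TMTpro 16plex LC-MS/MS with channel sums equalised, and values are log-two fold changes in thermal stability relative to solvent controls from duplicates.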

[1] = compound: C/C(=N\NC(=O)C1=CC(=CC=C1)S(=O)(=O)N2CCOCC2)/C3=C(C=CC(=C3)Cl)O
How it was run: as §1

[2] = compound: C1=CC(=CC=C1C2=NC3=C(N2)C=C(C=C3)C(=O)N)OC4=CC=C(C=C4)Cl
How it was run: as §1

[3] = compound: C1=CC2=C(C=CC(=C2)/C=C\3/C(=O)NC(=NCC4=CC=CS4)S3)N=C1
How it was run: as §1

[4] = compound: C1=CC2=NC=CN=C2C=C1/C=C/3\C(=O)NC(=O)S3
How it was run: as §1

[5] = compound: C1=CC=C(C=C1)C2=NC(=C(N2)C3=CC=NC=C3)C4=CC(=C(C=C4)Cl)O
How it was run: as §1

[6] = compound: C1=CC=C2C(=C1)C3=NNC4=CC=CC(=C43)C2=O
How it was run: as §1

[7] = compound: C1CCN(C1)C(=O)NC2=CC=CC(=C2)NC3=NC=C(C(=N3)NCCC4=CN=CN4)Br
How it was run: as §1

[8] = compound: C1CN(CCC1(CC2=CC=C(C=C2)Cl)N)C3=NC=NC4=C3C=CN4
How it was run: as §1

IRAK-1-4 Inhibitor I = compound: C1COCCN1CCN2C3=CC=CC=C3N=C2NC(=O)C4=CC(=CC=C4)[N+](=O)[O-] [IRAK-1-4 Inhibitor I]
How it was run: as §1

ibrutinib = compound: C=CC(=O)N1CCC[C@@H](n2nc(-c3ccc(Oc4ccccc4)cc3)c3c(N)ncnc32)C1 [ibrutinib]
How it was run: as §1

[9] = compound: CC(=O)c1cnc2ccc(-c3cc(Cl)c(O)c(Cl)c3)nc2c1N[C@H]1CC[C@H](CN(C)C)CC1
How it was run: as §1

ralimetinib = compound: CC(C)(C)Cn1c(N)nc2ccc(-c3[nH]c(C(C)(C)C)nc3-c3ccc(F)cc3)nc21 [ralimetinib]
How it was run: as §1

[10] = compound: CC(C)(O)CC(=O)NCCn1ccc2ncnc(Nc3ccc(Oc4cccc(C(F)(F)F)c4)c(Cl)c3)c21
How it was run: as §1

[11] = compound: CC(C)C1=C2N=C(C=C(N2N=C1)NCC3=CC=CC=C3)NCCCCCCN
How it was run: as §1

[12] = compound: CC1=C(C(CC(=O)N1)C2=CC=C(C=C2)C(F)(F)F)C(=O)NC3=C(C=C4C(=C3)C=NN4)F
How it was run: as §1

[13] = compound: CC1=C(C2=C(C=C1)C(=O)C3=CC=CC=C3N2CCCN)C
How it was run: as §1

[14] = compound: CC1=C(C=C(C=C1)NC(=O)C2=CC(=CC=C2)C(C)(C)C#N)NC3=CC4=C(C=C3)N=CN(C4=O)C
How it was run: as §1

[15] = compound: CC1=C(C=C(C=C1)NC(=O)C2=CC(=CC=C2)N(C)C)NC(=O)C3=CC=C(C=C3)O
How it was run: as §1

[16] = compound: CC1=CC=C(C=C1)SC2=C3C=C(SC3=CN=C2)C(=O)N
How it was run: as §1

Measured: log2 fold change

THADA (UniProt Q6YHU6)
inactive: erlotinib 0.059 | [1] -0.003 | [2] 0 | [3] 0.004 | [4] -0.011 | [5] -0.004 | [6] -0.017 | [7] -0.024 | [8] 0.017 | IRAK-1-4 Inhibitor I -0.017 | ibrutinib 0.011 | [9] 0.006 | ralimetinib -0.009 | [10] -0.029 | [11] -0.016 | [12] -0.01 | [13] 0.012 | [14] 0.028 | [15] 0.03 | [16] 0.013

THOP1 (UniProt P52888)
inactive: erlotinib 0.01 | [1] 0.064 | [2] 0.031 | [3] -0.018 | [4] 0.005 | [5] -0.018 | [6] 0.02 | [7] 0.005 | [8] 0.016 | IRAK-1-4 Inhibitor I -0.001 | ibrutinib 0.025 | [9] -0.002 | ralimetinib 0.013 | [10] -0.027 | [11] 0.001 | [12] 0.003 | [13] -0.002 | [14] 0.029 | [15] -0.038 | [16] -0.001

TIA1 (UniProt P31483)
inactive: erlotinib 0 | [1] -0.01 | [2] 0.134 | [3] -0.051 | [4] -0.009 | [5] -0.055 | [6] 0 | [7] 0 | [8] -0.055 | IRAK-1-4 Inhibitor I 0.005 | ibrutinib -0.02 | [9] -0.006 | ralimetinib -0.017 | [10] 0.038 | [11] -0.056 | [12] -0.07 | [13] 0.08 | [14] -0.163 | [15] -0.045 | [16] 0.017

THEM4 (UniProt Q5T1C6)
inactive: erlotinib 0.007 | [1] -0.155 | [2] 0.02 | [3] 0.017 | [4] -0.033 | [5] 0.019 | [6] 0.032 | [7] -0.025 | [8] 0.035 | IRAK-1-4 Inhibitor I -0.004 | ibrutinib 0.016 | [9] 0.046 | ralimetinib 0.041 | [10] -0.006 | [11] -0.034 | [12] -0.009 | [13] -0.018 | [14] 0.043 | [15] -0.031 | [16] -0.024

TM9SF3 (UniProt Q9HD45)
inactive: erlotinib -0.002 | [1] -0.002 | [2] -0.031 | [3] 0.026 | [4] -0.001 | [5] -0.029 | [6] 0.022 | [7] -0.03 | [8] 0.027 | IRAK-1-4 Inhibitor I 0.018 | ibrutinib 0.009 | [9] 0.009 | ralimetinib -0.002 | [10] 0 | [11] -0.023 | [12] 0.09 | [13] 0.03 | [14] 0 | [15] -0.017 | [16] 0.006

THTPA (UniProt Q9BU02)
inactive: erlotinib -0.096 | [1] -0.055 | [2] 0.024 | [3] -0.043 | [4] 0.099 | [5] 0.033 | [6] -0.056 | [7] -0.072 | [8] 0.003 | IRAK-1-4 Inhibitor I 0.026 | ibrutinib 0.014 | [9] 0.079 | ralimetinib 0.021 | [10] 0.039 | [11] 0.007 | [12] 0.007 | [13] -0.031 | [14] 0.011 | [15] -0.048 | [16] -0.05

TMA16 (UniProt Q96EY4)
inactive: erlotinib -0.065 | [1] 0.009 | [2] -0.049 | [3] 0.007 | [4] 0.032 | [5] 0.02 | [6] 0.014 | [7] 0.055 | [8] 0.009 | IRAK-1-4 Inhibitor I -0.026 | ibrutinib 0.009 | [9] 0.006 | ralimetinib -0.016 | [10] 0.012 | [11] 0.027 | [12] 0.023 | [13] -0.031 | [14] 0.013 | [15] 0.009 | [16] 0.038

TLCD4 (UniProt Q96MV1)
inactive: erlotinib 0 | [1] -0.032 | [2] 0.022 | [3] 0 | [4] 0.029 | [5] -0.042 | [6] -0.059 | [7] 0.025 | [8] -0.002 | IRAK-1-4 Inhibitor I -0.11 | ibrutinib 0.011 | [9] 0.014 | ralimetinib 0.049 | [10] 0.099 | [11] -0.021 | [12] 0.034 | [13] 0.115 | [14] -0.116 | [15] -0.078 | [16] -0.006

THYN1 (UniProt Q9P016)
inactive: erlotinib 0.016 | [1] -0.05 | [2] -0.017 | [3] 0.054 | [4] -0.052 | [5] 0 | [6] -0.007 | [7] 0.056 | [8] -0.01 | IRAK-1-4 Inhibitor I -0.06 | ibrutinib -0.07 | [9] -0.006 | ralimetinib -0.021 | [10] 0.025 | [11] 0.081 | [12] -0.005 | [13] 0.014 | [14] -0.038 | [15] -0.007 | [16] 0.022

TMEM126A (UniProt Q9H061)
inactive: erlotinib 0 | [1] -0.043 | [2] -0.027 | [3] -0.023 | [4] 0.005 | [5] -0.008 | [6] 0.019 | [7] -0.037 | [8] 0.006 | IRAK-1-4 Inhibitor I -0.016 | ibrutinib 0.023 | [9] 0.002 | ralimetinib 0.05 | [10] -0.03 | [11] -0.037 | [12] 0.051 | [13] 0.017 | [14] -0.05 | [15] 0.003 | [16] 0.014

TMEM179B (UniProt Q7Z7N9)
inactive: erlotinib 0 | [1] -0.045 | [2] 0.08 | [3] 0.079 | [4] 0 | [5] -0.018 | [6] 0.09 | [7] -0.044 | [8] 0.026 | IRAK-1-4 Inhibitor I 0.013 | ibrutinib 0.107 | [9] -0.054 | ralimetinib -0.134 | [10] -0.027 | [11] -0.121 | [12] 0.033 | [13] 0.007 | [14] 0.151 | [15] 0.034 | [16] 0.016

TIMM8B (UniProt Q9Y5J9)
inactive: erlotinib 0.016 | [1] -0.022 | [2] -0.012 | [3] 0.059 | [4] -0.033 | [5] -0.076 | [6] -0.058 | [7] -0.017 | [8] 0.096 | IRAK-1-4 Inhibitor I -0.024 | ibrutinib -0.091 | [9] -0.066 | ralimetinib 0.034 | [10] -0.007 | [11] -0.137 | [12] -0.119 | [13] -0.09 | [14] 0.071 | [15] 0.019 | [16] 0.066

THOC1 (UniProt Q96FV9)
inactive: erlotinib -0.025 | [1] -0.022 | [2] -0.033 | [3] 0.037 | [4] -0.001 | [5] -0.012 | [6] -0.032 | [7] 0.022 | [8] -0.04 | IRAK-1-4 Inhibitor I 0.006 | ibrutinib -0.003 | [9] -0.002 | ralimetinib -0.017 | [10] 0.018 | [11] 0.002 | [12] -0.003 | [13] -0.007 | [14] -0.004 | [15] 0.01 | [16] 0.017

TMED5 (UniProt Q9Y3A6)
inactive: erlotinib 0.014 | [1] -0.003 | [2] -0.067 | [3] -0.007 | [4] 0.008 | [5] -0.072 | [6] 0.021 | [7] 0.025 | [8] -0.01 | IRAK-1-4 Inhibitor I 0.027 | ibrutinib 0.009 | [9] 0.032 | ralimetinib 0.029 | [10] -0.02 | [11] -0.02 | [12] 0.032 | [13] 0.002 | [14] -0.017 | [15] -0.025 | [16] -0.03

TGFBRAP1 (UniProt Q8WUH2)
inactive: erlotinib 0.015 | [1] 0.057 | [2] -0.016 | [3] -0.002 | [4] -0.018 | [5] -0.02 | [6] -0.056 | [7] 0.023 | [8] 0.006 | IRAK-1-4 Inhibitor I -0.026 | ibrutinib 0.002 | [9] 0.022 | ralimetinib 0.011 | [10] 0.025 | [11] -0.014 | [12] 0.007 | [13] 0.015 | [14] -0.005 | [15] 0.009 | [16] -0.012

TMEM135 (UniProt Q86UB9)
inactive: erlotinib 0.03 | [1] -0.186 | [2] -0.015 | [3] 0.171 | [4] 0.015 | [5] -0.069 | [6] -0.217 | [7] 0 | [8] -0.005 | IRAK-1-4 Inhibitor I 0.057 | ibrutinib 0.037 | [9] 0.022 | ralimetinib 0.028 | [10] 0.082 | [11] 0.011 | [12] 0.011 | [13] 0.028 | [14] -0.04 | [15] 0.06 | [16] 0.013

Looked up one by one from the list above, two records:
TIMM8B (UniProt Q9Y5J9)
inactive: erlotinib 0.016 | [1] -0.022 | [2] -0.012 | [3] 0.059 | [4] -0.033 | [5] -0.076 | [6] -0.058 | [7] -0.017 | [8] 0.096 | IRAK-1-4 Inhibitor I -0.024 | ibrutinib -0.091 | [9] -0.066 | ralimetinib 0.034 | [10] -0.007 | [11] -0.137 | [12] -0.119 | [13] -0.09 | [14] 0.071 | [15] 0.019 | [16] 0.066

THADA (UniProt Q6YHU6)
inactive: erlotinib 0.059 | [1] -0.003 | [2] 0 | [3] 0.004 | [4] -0.011 | [5] -0.004 | [6] -0.017 | [7] -0.024 | [8] 0.017 | IRAK-1-4 Inhibitor I -0.017 | ibrutinib 0.011 | [9] 0.006 | ralimetinib -0.009 | [10] -0.029 | [11] -0.016 | [12] -0.01 | [13] 0.012 | [14] 0.028 | [15] 0.03 | [16] 0.013
